Reference: PubChem BioAssay AID588590 (National Center for Advancing Translational Sciences (NCATS), 2011)
Several values for one entry are separate records, joined by “and”; a condition that tells them apart may be missing. Equal values may be shown once. Screen size: about 390,000 compounds; about 4,000 (1%) were called active. Inconclusive results, whose numbers are uncertain, are shown with a selection of clear calls. Calls follow the shape of the dose curve; as a rule, active = well fitted inhibition curve with a large enough effect; inconclusive = small, poorly fitted or top-dose-only effect, or another doubt; inactive = no such curve, though single readings can be large or run the other way. A potency beside an inconclusive call is a rough fit, not a confirmed value.

The chains behind the UniProt entries cited, without tags or fusion partners. Where a name states a change or a piece, a line headed by the entry shows the natural chain unless it says otherwise.
UniProt Q9UNA4: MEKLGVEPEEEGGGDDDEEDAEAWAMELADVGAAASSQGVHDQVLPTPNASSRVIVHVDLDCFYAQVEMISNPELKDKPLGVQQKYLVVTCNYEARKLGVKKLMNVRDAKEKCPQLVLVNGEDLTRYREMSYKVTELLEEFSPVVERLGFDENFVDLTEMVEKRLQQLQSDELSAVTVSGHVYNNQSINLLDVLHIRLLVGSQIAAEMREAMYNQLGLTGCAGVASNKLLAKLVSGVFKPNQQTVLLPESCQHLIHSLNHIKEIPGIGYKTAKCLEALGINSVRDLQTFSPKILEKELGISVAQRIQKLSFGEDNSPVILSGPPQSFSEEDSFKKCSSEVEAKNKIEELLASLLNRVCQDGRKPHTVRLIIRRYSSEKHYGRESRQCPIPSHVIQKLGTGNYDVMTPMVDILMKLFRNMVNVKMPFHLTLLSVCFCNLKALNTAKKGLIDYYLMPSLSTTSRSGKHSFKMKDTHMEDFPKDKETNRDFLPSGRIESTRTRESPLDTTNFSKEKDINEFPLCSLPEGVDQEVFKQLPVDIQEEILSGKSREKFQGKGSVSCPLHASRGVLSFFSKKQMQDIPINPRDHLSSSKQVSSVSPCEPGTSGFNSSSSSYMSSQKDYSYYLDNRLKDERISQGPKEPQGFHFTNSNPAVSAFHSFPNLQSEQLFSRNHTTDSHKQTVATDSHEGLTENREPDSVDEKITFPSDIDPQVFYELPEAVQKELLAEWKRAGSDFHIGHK

Molecular target: DNA polymerase iota (Homo sapiens) (UniProt Q9UNA4)
Test: qHTS for Inhibitors of Polymerase Iota
Settings: Pol iota fluorescent replication assay, 10 min; series mostly up to 115 µM
Method in brief: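 Fluorescent replication assay read twice, at 0 min and 10 min after adding 50 nM (final) substrate. Enzyme (10 nM) and compounds were first incubated 15 min at room temperature; enzyme-free buffer wells were negative controls.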
Potency is read from the fitted curve at half-maximal effect.

| Structure (SMILES) | Potency |
| --- | --- |
| O=C(Nc1cc(C(F)(F)F)ccc1N1CCOCC1)C1Cc2ccccc2CN1C(=O)c1ccco1 (stereo unspecified) | inconclusive: 31.6 µM [inhibitor, single point] |
| Cc1cc(=O)n2[nH]c(-c3ccco3)nc2n1 | inconclusive: 50.1 µM [inhibitor, partial curve, poor fit] |
| CCOC(=O)[C@H]1[C@H]2COc3ccc(Br)cc3[C@H]2N2C(=O)CN(Cc3ccc(C)cc3)C(=O)[C@@]12C | inconclusive: 1.58 µM [inhibitor, full curve, poor fit] |
| O=[N+]([O-])c1cc(-c2ccc(/C=N\n3cnnc3)o2)cc([N+](=O)[O-])c1 | active: 22.4 µM |
| CCN1CCN(C(=O)c2nn(-c3ccc(OC)cc3)c(=O)c3c2c2ccccc2n3C)CC1 | inactive |
| CCOc1ccccc1/C=C(\C#N)C1=CCCC1 | inactive |
| COC(=O)C(c1ccccc1)N(Cc1cccc(CN(C(C(=O)OC)c2ccccc2)S(C)(=O)=O)c1)S(C)(=O)=O (stereo unspecified) | inconclusive: 89.1 µM [inhibitor, single point] |
| Cc1cc(C)c2cc(C)c(SCC(=O)NCc3ccco3)nc2c1 | inconclusive: 25.1 µM [inhibitor, full curve, poor fit] |
| Cc1c([N+](=O)[O-])cnc(Sc2ccccc2)c1[N+](=O)[O-] | inconclusive: 22.4 µM [inhibitor, full curve, poor fit] |
| Cc1ccc(Cl)cc1NC(=O)CCn1cnc2ccccc2c1=O | inconclusive: 89.1 µM [inhibitor, single point] |
| CCN(CC)c1ccc(C(=C2C=CC(=[N+](CC)CC)C=C2)c2ccc(N(CC)CC)cc2)cc1 | inactive |
| O=C1OC2(c3ccccc31)c1ccccc1-c1ccccc12 | inactive |
| Cn1nnnc1SCCCNCc1cc(Br)ccc1OCc1ccccc1F | inactive |
| Cc1ccc(CCNC(=O)c2ccc3c(c2)N(Cc2ccccc2F)C(=O)c2ccccc2S3=O)cc1 (stereo unspecified) | inactive |
| N#Cc1c(-c2ccccc2)cc(-c2ccc3c(c2)OCO3)[nH]c1=O | inactive |
| O=c1cc(COc2ncnc3ccccc23)nc2sccn12 | active: 28.2 µM |
| Fc1ccc(-c2csc(=Nc3cccc(C(F)(F)F)c3)n2Cc2ccc3c(c2)OCO3)cc1 | inconclusive: 50.1 µM [inhibitor, partial curve, poor fit] |
| C[C@]12c3[nH]c4ccccc4c3CCN1C(=O)C(CC(=O)NCCCn1ccnc1)C[C@@H]2C(=O)N1CCCCC1 (stereo partly specified) | inconclusive: 39.8 µM [inhibitor, full curve, poor fit] |
| COc1ccccc1Oc1ncnc2c1oc1ccccc12 | inactive |
| O=C(c1ccc2c(c1)N(Cc1c(F)cccc1Cl)C(=O)c1ccccc1S2)N1CCCC1 | inactive |
| CCc1ccc(NC(=O)c2ccc(Cn3nc(N4CCN(c5ccccc5)CC4)ccc3=O)o2)cc1 | inconclusive: 56.2 µM [inhibitor, partial curve, poor fit] |
| Cc1ccc2cc(CN(CCCN3CCOCC3)C(c3nnnn3Cc3ccco3)C(C)C)c(=O)[nH]c2c1C (stereo unspecified) | inconclusive: 39.8 µM [inhibitor, partial curve] |

Structures shown so far that have a carbonyl joined to an NH by a bond outside any ring, in the order listed:

| Structure (SMILES) | Potency |
| --- | --- |
| O=C(Nc1cc(C(F)(F)F)ccc1N1CCOCC1)C1Cc2ccccc2CN1C(=O)c1ccco1 (stereo unspecified) | inconclusive: 31.6 µM [inhibitor, single point] |
| Cc1cc(C)c2cc(C)c(SCC(=O)NCc3ccco3)nc2c1 | inconclusive: 25.1 µM [inhibitor, full curve, poor fit] |
| Cc1ccc(Cl)cc1NC(=O)CCn1cnc2ccccc2c1=O | inconclusive: 89.1 µM [inhibitor, single point] |
| Cc1ccc(CCNC(=O)c2ccc3c(c2)N(Cc2ccccc2F)C(=O)c2ccccc2S3=O)cc1 (stereo unspecified) | inactive |
| C[C@]12c3[nH]c4ccccc4c3CCN1C(=O)C(CC(=O)NCCCn1ccnc1)C[C@@H]2C(=O)N1CCCCC1 (stereo partly specified) | inconclusive: 39.8 µM [inhibitor, full curve, poor fit] |
| CCc1ccc(NC(=O)c2ccc(Cn3nc(N4CCN(c5ccccc5)CC4)ccc3=O)o2)cc1 | inconclusive: 56.2 µM [inhibitor, partial curve, poor fit] |

Following part.

| Structure (SMILES) | Potency |
| --- | --- |
| Cc1cc(Cl)ccc1OC(C)C(=O)Nc1ccc(C(=O)Nc2ccccc2C(=O)O)cc1 (stereo unspecified) | inconclusive: 31.6 µM [inhibitor, partial curve, poor fit] |
| Cc1[nH]c(=O)[nH]c(=O)c1/C=N/NC(=O)[C@H](C)NC(=O)OC(C)(C)C | inconclusive: 14.1 µM [inhibitor, partial curve, poor fit] |
| N#C/C=C1/NC(=O)c2ccccc2S1 | inconclusive: 20 µM [inhibitor, single point] |
| Cc1cc(C)cc(CC(Cc2nc3ccccc3[nH]2)c2nc3ccccc3[nH]2)c1 (stereo unspecified) | inconclusive: 1 µM [inhibitor, full curve, poor fit] |
| CC1CCc2c(sc3nnn(CC(=O)Nc4c(C(C)C)cccc4C(C)C)c(=O)c23)C1 (stereo unspecified) | inactive |
| O=C(COC(=O)c1cc(-c2ccccc2)nc2ccccc12)NC1CC1 | inconclusive: 39.8 µM [inhibitor, single point] |
| Cc1cccc(OCC(=O)NCCNC(=O)c2cccnc2)c1 | inactive |
| Cc1ccc(/C(O)=C2/C(=O)C(=O)N(Cc3ccco3)C2c2cccs2)cc1 (stereo unspecified) | inconclusive: 25.1 µM [inhibitor, full curve, poor fit] |
| CCOc1cc(/C=N/NC(=O)C(=O)Nc2cc(Cl)ccc2C)ccc1O | inconclusive: 7.94 µM [inhibitor, partial curve] |
| COc1ccccc1OCCNC(=O)CCC(=O)N1CCOCC1 | inactive |
| COc1ccc(CC(=O)OCC(=O)NCc2ccco2)cc1 | inconclusive: 17.8 µM [inhibitor, partial curve, poor fit] |
| Cc1ccc(C)n1-n1c(C)nc2sc(-c3ccccc3)cc2c1=O | inactive |
| COc1ccc(CNC(=O)c2cc3cccc4c3n2CC(C)S4)cc1OC (stereo unspecified) | inactive |
| COc1ccc(/C=C/C(=O)Nc2ccc(C)cc2)cc1S(=O)(=O)N1CCOCC1 | inconclusive: 89.1 µM [inhibitor, partial curve, poor fit] |
| COc1ccc(C(=O)c2sc3nc(-c4ccccc4)ccc3c2N)cc1OC | inconclusive: 28.2 µM [inhibitor, single point] |
| CN1CCCN(S(=O)(=O)c2ccc(O)c(C(=O)O)c2)CC1 | inconclusive: 56.2 µM [inhibitor, partial curve] |
| O=S(=O)(c1ccc(OCC(O)CN2CCN(c3ccccc3)CC2)cc1)N1CCOCC1 (stereo unspecified) | inconclusive: 100 µM [inhibitor, partial curve, poor fit] |
| Clc1ccc(/C=N/c2c(-c3ccc(Cl)cc3)nc3n2CCS3)cc1 | inconclusive: 1.26 µM [inhibitor, full curve, poor fit] |
| COc1ccc(CCNC(=O)c2ccc(=O)[nH]c2)cc1OC | inactive |
| CCN(CC)Cc1c(C(=O)N/N=C(\C)c2ccncc2)nnn1-c1nonc1N | inactive |
| CCOc1ccccc1NC(=O)Cn1c(=O)oc2cc(S(=O)(=O)NCc3ccccc3)ccc21 | inactive |
| CN(C)c1ccc(CNC(=O)C2CCCN(S(=O)(=O)c3ccc4c(ccn4C)c3)C2)cc1 (stereo unspecified) | inactive |

| Structure (SMILES) | Potency |
| --- | --- |
| N#CC1(NC(=O)COC(=O)/C=C/c2ccc3ccccc3n2)CCCCC1 | active: 44.7 µM |
| Cn1c(=O)[nH]c(=O)c2c1nc(Br)n2CCCCSc1nc2ccccc2o1 | inconclusive: 100 µM [inhibitor, partial curve, poor fit] |
| O=c1cnnc(N/N=C/c2cccs2)[nH]1 | inconclusive: 100 µM [inhibitor, single point] |
| Cc1cc(C(F)F)n2nc(C(=O)Nc3ccc(S(=O)(=O)NC45CC6CC(CC(C6)C4)C5)cc3)nc2n1 | inconclusive: 50.1 µM [inhibitor, partial curve, poor fit] |
| Cn1nnc(NC(=S)NC(=O)c2cccc3c(Cl)cccc23)n1 | inconclusive: 31.6 µM [inhibitor, partial curve, poor fit] |
| Clc1ccc(N2CCN(Cc3c[nH]c4ncccc34)CC2)cc1 | inconclusive: 39.8 µM [inhibitor, partial curve] and inconclusive: 44.7 µM [inhibitor, full curve, poor fit] |
| O=C(Cn1c(=O)oc2cc(S(=O)(=O)N3CCCC3)ccc21)NCc1ccc(Cl)cc1 | inactive |
| CCS(=O)(=O)N1CCC(c2nc(-c3ccc(C)cc3)no2)CC1 | inconclusive: 89.1 µM [inhibitor, single point] |
| Cc1cccc(NS(=O)(=O)c2cnc(Cl)c(Br)c2)n1 | inactive |
| O=C(COc1ccc([N+](=O)[O-])cc1)Nc1ccc2c(c1)nc1n2CCOC1 | inconclusive: 31.6 µM [inhibitor, single point] |
| Cc1ccc(-n2nnnc2SCC(=O)N(CC(C)C)c2c(N)n(CC(C)C)c(=O)[nH]c2=O)cc1 | inconclusive: 0.631 µM [inhibitor, partial curve, poor fit] |
| COCCCn1c(=O)c2sccc2n2c(CCCC(=O)NCc3ccccc3)nnc12 | inconclusive: 79.4 µM [inhibitor, single point] |
| COc1ccc(NC(=O)Cn2c(=O)n(-c3cccc(C)c3)c(=O)c3c2c2cc(C)ccc2n3C)cc1Cl | inactive |
| Cc1ccn2c(=O)nc(SCC(=O)Nc3cc(C)on3)nc2c1 | inconclusive: 22.4 µM [inhibitor, partial curve, poor fit] |
| COC(=O)c1ccccc1NC(=O)Cn1cnc2ccc(S(=O)(=O)N3CCC(C)CC3)cc2c1=O | inconclusive: 35.5 µM [inhibitor, single point] |
| Cc1cccc(-n2c(C)nc3c(cnn3-c3ccc(F)cc3)c2=O)c1 | inconclusive: 14.1 µM [inhibitor, partial curve, poor fit] |
| Cc1ccc(-n2nnnc2SCC(=O)NNC(=O)c2ccc([N+](=O)[O-])cc2)cc1 | inconclusive: 25.1 µM [inhibitor, full curve] |
| CCOc1c(Br)cc(C(=O)N2CCCN(C)CC2)cc1OC | inactive |
| Cc1nc(C)c(C(=O)Nc2ccc(C)c(F)c2)o1 | inconclusive: 20 µM [inhibitor, full curve, poor fit] |
| O=C(Nc1cscc1S(=O)(=O)c1ccc(Cl)cc1)c1ccccc1Cl | inconclusive: 22.4 µM [inhibitor, full curve, poor fit] |
| CC(C)c1ccc(C2C3=C(CC(c4ccco4)CC3=O)Nc3nc(C(F)(F)F)nn32)cc1 (stereo unspecified) | inactive |
| O=C(O)CC1(c2ccccc2)C(=O)c2ccccc2C1=O | inactive |
